Experimental data taken from US9695150B2, “Crystalline form of a substituted quinoline compound and pharmaceutical compositions thereof” (Sunshine Lake Pharma Co., Ltd., priority 2015, dated 2017).
Some of these results come from one statement about several compounds together.

Assay: Stability test (impurity contents by HPLC after storage of the solid)
Assay type: physicochemical
Conditions: high temperature, high humidity and at room temperature
Description: A sample of crystalline form C of compound (I) (100˜200 mg) was placed on a watching glass in the form of a thin layer (thickness ≦5 mm). The samples were exposed to the following conditions: high temperature (60±2° C.) for 10 days; high humidity (25±2° C., 90%±5% relative humidity) for 10 days; illumination condition (visible light 4500 lx±500 lx with ultraviolet light not lower than 0.7 W·h/m^2, 25±2° C., 60%±5% relative humidity) for 10 days; and room temperature (30±2° C., 65%±5% relative humidity) for 10 days, respectively. The impurity contents in the samples were determined at different time points (0, 5 and 10 days) by high performance liquid chromatography (HPLC), and the absorption peaks were normalized relative to the highest peak (corresponds to compound I) which is set to 100%.

Row | SMILES | Time stable
1 | Cc1c(C(=O)Nc2ccc(Oc3ccnc4cc(OCC(C)(C)O)ccc34)c(F)c2)c(=O)n(-c2ccccc2)n1C.Cc1ccc(S(=O)(=O)O)cc1 [Amorphous, N-(3-fluoro-4-((7-(2-hydroxy-2-methylpropoxy)quinolin-4-yl)oxy)phenyl)-1,5-dimethyl-3-oxo-2-phenyl-2,3-dihydro-1H-pyrazole-4-carboxamide p-toluenesulfonate] | at least 10 days
2 | Cc1c(C(=O)Nc2ccc(Oc3ccnc4cc(OCC(C)(C)O)ccc34)c(F)c2)c(=O)n(-c2ccccc2)n1C.Cc1ccc(S(=O)(=O)O)cc1 [Form C, N-(3-fluoro-4-((7-(2-hydroxy-2-methylpropoxy)quinolin-4-yl)oxy)phenyl)-1,5-dimethyl-3-oxo-2-phenyl-2,3-dihydro-1H-pyrazole-4-carboxamide p-toluenesulfonate] | at least 10 days
